Assay results from PubChem BioAssay AID248 (DTP/NCI, 2004).
The list does not hold the whole screen: it is rich in T/C values a quarter to a half above the control, in often repeated tests (any T/C) and in doses without a T/C. Further doses and runs are listed elsewhere. T/C gives the treated animals as a percentage of the vehicle group. Some entries give survivors of the animals treated and no T/C: the source files T/C as zero there, which appears to mark a toxic dose or a test without result, not a measured value. Some survivor counts are full or nearly so, which does not show that the dose was tolerated: survival well below the control is almost never listed, so the zero probably covers shortened survival too. Survivors were counted at the toxicity check, usually on the fifth day, unless a day is given; later deaths do not show. Schedule codes are those of the source, read here as Q, the interval in days (D) or hours (H), X, the number of doses. Some schedule codes hold Z or #, which are not explained here. Counts like (3×) give the number of equal values in this list. Where survival is the endpoint, the PubChem record calls one and a half times the control and up active, and a quarter to a half above the control has no call in these data; cut-offs in other NCI protocols can differ. Some T/C values carry the count of animals alive at the toxicity check (mostly the fifth day); without a count, all were alive then. Some entries hold several experiments; their values stand side by side, smallest first.

Tested on: L1210 leukemia ip in BDF1 mice, survival T/C
Assay: NCI In Vivo Anticancer Drug Screen. Data for tumor model L1210 Leukemia (intraperitoneal) in B6D2F1 (BDF1) mice
Conditions: T/C endpoint: mean survival time, higher T/C = longer survival
[1] = dose: 5.0 mg/kg/injection, schedule: Q01DX Z (ip), vehicle: methylcellulose (MC)
[2] = dose: 400.0 mg/kg/injection, schedule: Q01DX009 (ip), vehicle: Klucel (hydroxypropylcellulose) (HPC)
[3] = dose: 100.0 mg/kg/injection, schedule: Q01DX009 (ip), vehicle: saline with Tween-80
[4] = dose: 200.0 mg/kg/injection, schedule: Q01DX009 (ip), vehicle: saline with Tween-80
[5] = dose: 200.0 mg/kg/injection, schedule: Q01DX001 (ip), vehicle: saline
[6] = dose: 400.0 mg/kg/injection, schedule: Q01DX001 (ip), vehicle: saline

## O=C(Nc1ccc(C2=NCCN2)cc1)c1ccc(C(=O)Nc2ccc(C3=NCCN3)cc2)c(NC(=O)c2ccc(C(=O)Nc3cc(C(=O)Nc4ccc(C5=NCCN5)cc4)ccc3C(=O)Nc3ccc(C4=NCCN4)cc3)cc2)c1
dose: 2.5 mg/kg/injection, schedule: Q01DX Z (ip), vehicle: methylcellulose (MC)
  survivor count: 0 of 6
[1]
  T/C: 127 % of control
  survivor count: 0 of 6
dose: 10.0 mg/kg/injection, schedule: Q01DX Z (ip), vehicle: methylcellulose (MC)
  survivor count: 0 of 6
dose: 15.0 mg/kg/injection, schedule: Q01DX Z (ip), vehicle: methylcellulose (MC)
  T/C: 128 % of control
dose: 25.0 mg/kg/injection, schedule: Q01DX009 (ip), vehicle: saline
  T/C: 90, 94, 104 [5 of 6 alive], 110 % of control
dose: 30.0 mg/kg/injection, schedule: Q01DX Z (ip), vehicle: methylcellulose (MC)
  T/C: 135 % of control
dose: 37.5 mg/kg/injection, schedule: Q03DX Z (ip), vehicle: carboxymethylcellulose (CMC)
  T/C: 127 % of control
dose: 50.0 mg/kg/injection, schedule: Q01DX009 (ip), vehicle: saline
  T/C: 89, 93, 103, 112 % of control
dose: 60.0 mg/kg/injection, schedule: Q01DX Z (ip), vehicle: methylcellulose (MC)
  survivor count: 0 of 6
dose: 75.0 mg/kg/injection, schedule: Q01DX015 (ip), vehicle: carboxymethylcellulose (CMC)
  T/C: 125 % of control
dose: 87.5 mg/kg/injection, schedule: Q07DX Z (ip), vehicle: carboxymethylcellulose (CMC)
  T/C: 130 % of control
dose: 100.0 mg/kg/injection, schedule: Q01DX009 (ip), vehicle: saline
  T/C: 96 (2×), 130, 142 % of control
dose: 120.0 mg/kg/injection, schedule: Q01DX Z (ip), vehicle: methylcellulose (MC)
  survivor count: 0 of 6
dose: 200.0 mg/kg/injection, schedule: Q01DX009 (ip), vehicle: saline
  T/C: 96 [5 of 6 alive], 100, 155, 178 % of control
dose: 240.0 mg/kg/injection, schedule: Q01DX Z (ip), vehicle: methylcellulose (MC)
  survivor count: 0 of 6
dose: 960.0 mg/kg/injection, schedule: Q01DX001 (ip), vehicle: other
  T/C: 127 and 137 % of control
dose: 2160.0 mg/kg/injection, schedule: Q01DX001 (ip), vehicle: other
  T/C: 136 % of control

## CCC(Br)C(=O)Nc1c(C)cccc1Cl (stereo not given)
dose: 200.0 mg/kg/injection, schedule: Q01DX009 (ip), vehicle: Klucel (hydroxypropylcellulose) (HPC)
  survivor count: 6 of 6
[2]
  survivor count: 6 of 6

## CCN(CC)CC1CO1 (stereo not given)
dose: 30.0 mg/kg/injection, schedule: Q01DX009 (ip), vehicle: saline
  survivor count: 0 of 6

## O=C(O)CS(=O)(=O)c1ccccc1
dose: 400.0 mg/kg/injection, schedule: Q04DX003 (ip), vehicle: saline
  survivor count: 4 of 6

## Cc1ccc(S(=O)(=O)NC(C)(C)CNc2ncnc(Cl)c2N)cc1
dose: 38.0 mg/kg/injection, schedule: Q01DX001 (ip), vehicle: other
  survivor count: 1 of 6
dose: 75.0 mg/kg/injection, schedule: Q01DX001 (ip), vehicle: other
  survivor count: 2 of 6
dose: 150.0 mg/kg/injection, schedule: Q01DX001 (ip), vehicle: other
  survivor count: 0 of 6
dose: 300.0 mg/kg/injection, schedule: Q01DX001 (ip), vehicle: other
  survivor count: 0 of 6

## NC(=O)c1[nH]cnc1N1CC[N+](Cc2ccccc2)=N1
dose: 400.0 mg/kg/injection, schedule: Q01DX001 (ip), vehicle: Klucel (hydroxypropylcellulose) (HPC)
  survivor count: 3 of 6

## Cc1ccc(C)c(NC(=S)NC(=O)c2ccc(Cl)cc2Cl)c1
[3]
  T/C: 93 (2×), 95, 101 % of control
[4]
  T/C: 92, 93, 110 % of control
  survivor count: 6 of 6
dose: 400.0 mg/kg/injection, schedule: Q01DX009 (ip), vehicle: saline with Tween-80
  T/C: 93, 95, 96, 99 % of control

## N#CCC(N)=C(C#N)C#N
dose: 18.25 mg/kg/injection, schedule: Q01DX015 (ip), vehicle: carboxymethylcellulose (CMC), evaluated on day 5
  T/C: 86, 96, 100 % of control
dose: 18.25 mg/kg/injection, schedule: Q01DX015 (ip), vehicle: carboxymethylcellulose (CMC), evaluated on day 30
  T/C: 86, 96, 100 % of control
dose: 37.5 mg/kg/injection, schedule: Q01DX015 (ip), vehicle: carboxymethylcellulose (CMC), evaluated on day 5
  T/C: 86, 91, 93, 107 % of control
dose: 37.5 mg/kg/injection, schedule: Q01DX015 (ip), vehicle: carboxymethylcellulose (CMC), evaluated on day 30
  T/C: 86, 91, 93 % of control
dose: 75.0 mg/kg/injection, schedule: Q01DX015 (ip), vehicle: carboxymethylcellulose (CMC), evaluated on day 5
  T/C: 86, 93, 100 % of control (2×)
dose: 75.0 mg/kg/injection, schedule: Q01DX015 (ip), vehicle: carboxymethylcellulose (CMC), evaluated on day 30
  T/C: 86, 93, 100 % of control
dose: 150.0 mg/kg/injection, schedule: Q01DX015 (ip), vehicle: carboxymethylcellulose (CMC), evaluated on day 5
  T/C: 87, 89, 91, 93 % of control
dose: 150.0 mg/kg/injection, schedule: Q01DX015 (ip), vehicle: carboxymethylcellulose (CMC), evaluated on day 30
  T/C: 87, 91, 93 % of control [4 of 6 alive]
dose: 150.0 mg/kg/injection, schedule: Q01DX Z (ip), vehicle: carboxymethylcellulose (CMC)
  survivor count: 0 of 6
dose: 300.0 mg/kg/injection, schedule: Q01DX015 (ip), vehicle: carboxymethylcellulose (CMC)
  survivor count: 6 of 6
dose: 400.0 mg/kg/injection, schedule: Q01DX001 (ip), vehicle: carboxymethylcellulose (CMC)
  survivor count: 1 of 4

## CC(C)CCSc1ccccc1
dose: 300.0 mg/kg/injection, schedule: Q01DX001 (ip), vehicle: acetone
  survivor count: 1 of 6

## CC(CN1c2ccccc2Sc2ccccc21)[N+](C)(C)C (stereo not given)
[5]
  survivor count: 0 of 4
[6]
  survivor count: 0 of 4

## O=c1[nH]c(=O)n(C2CCCCO2)cc1F (stereo not given)
dose: 320.0 mg/kg/injection, schedule: Q01DX009 (ip), vehicle: saline
  survivor count: 3 of 8

## CSc1nnnc2ccccc12
dose: 150.0 mg/kg/injection, schedule: Q04DX002 (ip), vehicle: saline with Tween-80
  survivor count: 3 of 3

## COc1ccc(C(=O)NC(=S)Nc2ccccc2F)cc1
[2]
  survivor count: 6 of 6

## Nc1cccc(NC=O)c1
[3]
  survivor count: 3 of 6

## O=C(Cl)C1C(c2ccccc2)C1c1ccccc1 (stereo not given)
dose: 200.0 mg/kg/injection, schedule: Q04DX003 (ip), vehicle: saline with Tween-80
  survivor count: 2 of 6
dose: 400.0 mg/kg/injection, schedule: Q04DX003 (ip), vehicle: saline with Tween-80
  survivor count: 0 of 6

## CC(C)(C)C1COP(=S)(c2ccccc2)OC1 (stereo not given)
dose: 100.0 mg/kg/injection, schedule: Q04DX003 (ip), vehicle: Klucel (hydroxypropylcellulose) (HPC)
  survivor count: 2 of 6
dose: 200.0 mg/kg/injection, schedule: Q04DX003 (ip), vehicle: Klucel (hydroxypropylcellulose) (HPC)
  survivor count: 0 of 6 (2×)
dose: 400.0 mg/kg/injection, schedule: Q04DX003 (ip), vehicle: Klucel (hydroxypropylcellulose) (HPC)
  survivor count: 0 of 6 (2×)

## O=CNc1ccccc1Cc1ccccc1
[6]
  survivor count: 1 of 4

## CC1=CC(=O)NP(=O)(OC2CCCCC2)N1 (stereo not given)
dose: 50.0 mg/kg/injection, schedule: Q01DX005 (ip), vehicle: sodium bicarbonate
  survivor count: 2 of 3
dose: 200.0 mg/kg/injection, schedule: Q01DX005 (ip), vehicle: sodium bicarbonate
  survivor count: 3 of 3

## CCN(CC)CCCNc1ccnc2cc(Cl)ccc12
[5]
  survivor count: 0 of 4
[6]
  survivor count: 0 of 4

## NCCCNCCCCNCCCN
dose: 64.0 mg/kg/injection, schedule: Q01DX010 (ip), vehicle: other
  survivor count: 1 of 6
dose: 128.0 mg/kg/injection, schedule: Q01DX010 (ip), vehicle: other
  survivor count: 0 of 6
dose: 256.0 mg/kg/injection, schedule: Q01DX010 (ip), vehicle: other
  survivor count: 0 of 6
dose: 512.0 mg/kg/injection, schedule: Q01DX010 (ip), vehicle: other
  survivor count: 0 of 6

## CCCCC1CCC2=C(CC(O)(CCCC)CC3=C1C(=O)OC3=O)C(=O)OC2=O (stereo not given)
dose: 400.0 mg/kg/injection, schedule: Q04DX002 (ip), vehicle: saline with Tween-80
  survivor count: 0 of 3

## Cc1nc2nc[nH]c(=O)c2nc1C
dose: 500.0 mg/kg/injection, schedule: Q01DX Z (ip), vehicle: methylcellulose (MC)
  survivor count: 6 of 6
